# Primary screen of a compound library

The chains behind the UniProt entries cited, without tags or fusion partners.
UniProt E9BF75, entry or part of it: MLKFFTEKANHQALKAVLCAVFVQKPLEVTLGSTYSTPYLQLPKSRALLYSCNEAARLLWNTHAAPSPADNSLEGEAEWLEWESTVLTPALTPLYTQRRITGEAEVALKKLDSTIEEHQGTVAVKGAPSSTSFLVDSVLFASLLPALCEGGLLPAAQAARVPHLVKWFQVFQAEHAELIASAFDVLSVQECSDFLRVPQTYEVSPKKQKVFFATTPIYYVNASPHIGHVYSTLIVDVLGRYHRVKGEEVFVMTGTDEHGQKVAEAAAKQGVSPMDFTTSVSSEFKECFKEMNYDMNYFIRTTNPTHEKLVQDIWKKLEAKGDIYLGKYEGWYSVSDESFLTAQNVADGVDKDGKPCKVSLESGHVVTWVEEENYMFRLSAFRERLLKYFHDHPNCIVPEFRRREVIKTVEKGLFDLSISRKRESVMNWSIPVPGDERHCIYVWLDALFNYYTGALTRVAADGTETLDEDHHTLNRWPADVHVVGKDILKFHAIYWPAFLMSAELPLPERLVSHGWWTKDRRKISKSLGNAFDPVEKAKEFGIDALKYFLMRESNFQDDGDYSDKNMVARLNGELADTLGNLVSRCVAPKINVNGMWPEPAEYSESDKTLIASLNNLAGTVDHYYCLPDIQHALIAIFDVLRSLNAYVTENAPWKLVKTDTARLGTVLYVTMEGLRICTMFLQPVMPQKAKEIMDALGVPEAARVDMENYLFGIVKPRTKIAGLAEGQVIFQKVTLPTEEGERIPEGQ

Mtb heat-shock: 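Assay on Mycobacterium tuberculosis, filed only as a heat shock assay from Cornell; the read-out is not stated. The concentration is filed as 10 mM, unlikely as a test dose, so the dose is not known. Direction is inferred from retests: higher values go with stronger inhibition. About 69,000 compounds were tested under these conditions; 1.4% (about 930) showed 50% or more at least once.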
Mtb growth Cornell: 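Whole-cell assay for inhibitors of Mycobacterium tuberculosis growth, labelled Cornell in the record; the read-out is not stated. The concentration is filed as 10 mM, unlikely as a test dose, so the dose is not known. The record gives no direction; compounds strong in two other growth screens of this library score well above the rest, so higher reads as stronger inhibition. About 53,000 compounds were tested under these conditions; 1.7% (about 900) showed 50% or more at least once.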
LdMetRS: 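Primary screen of methionyl-tRNA synthetase; the read-out is not stated. Target: Methionyl-tRNA synthetase (putative), Leishmania donovani (UniProt E9BF75). The test concentration is not given. Values are per cent inhibition. About 68,000 compounds were tested under these conditions; 0.035% (about 24) showed 50% or more at least once.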

Results are percentages, as filed. How 0% and 100% were set is not recorded. Most values in the screen are low, and negative values occur. The compounds are a random part of those screened. A dash means the value is not listed here; it may have been measured.

compound,Mtb heat-shock,Mtb growth Cornell,LdMetRS
NC(=O)N1CCCN(Cc2cc(F)cc(Br)c2)CC1,-27.7,17.84,11.9
O=C1NCCN2CCN(C(=O)NCCc3ccccc3)CC12 (centres unmarked),12.6,29.66,10.65
O=C(CCc1nc2cccnc2[nH]1)Nc1cccnc1,-13.06,-,15.35
c1ccc2c(c1)CN(c1ncnc3c1CCNC3)CCO2,22.91,-,22.4
Cc1nc(C2CCN(Cc3ncc[nH]3)CC2)no1.O=CO,-19.83,-43.22,-
O=C(O)C(F)(F)F.O=C(O)C(F)(F)F.[H][C@@]12C[C@@H](OCc3ccccc3)CN1CCN(C(=O)c1cccnc1)C2,3.858,-36.11,-
O=C(O)[C@@H]1CN(Cc2ccc3nsnc3c2)C[C@H]1c1cccnc1,-10.05,-0.3243,2.005
Cc1cc(NC(=O)c2ccccc2Br)n(C)n1,-15.01,11.86,8.01
[H][C@]12CC[C@]([H])(CN(CC(=O)N(C)C)C1)N(Cc1c(Cl)cncc1Cl)C2,-36.64,-41.99,-
COCCn1cncc1CN1CCCC(C)(c2ccccc2)C1 (centres unmarked),52.06,16.9,10.99
CC(CNC(=O)c1cc(-n2cccn2)ccn1)Cn1ccnc1 (centres unmarked),-2.179,-24.58,1.003
Cc1cnc(C(=O)N2Cc3ccccc3OC3(CCOCC3)C2)cn1,-15.6,-9.549,16.08
CCc1cc(NCCCC2CCOC2)n2nccc2n1 (centres unmarked),10.12,-,14.4
O=C(O)C(F)(F)F.O=C(O)C(F)(F)F.[H][C@@]12CC(COCc3cccnc3)C[C@@]1([H])N(c1ncc(C)cn1)CCO2 (some centres unmarked),44.78,-10.17,-
Cc1nc(COc2ccc(N(C)S(C)(=O)=O)cc2)sc1C,-25.98,-1.832,15.48
O=C(NC[C@H]1Cn2c(-c3ccccc3)cnc2CO1)C1CCOCC1,2.084,0.5532,8.475
CN(Cc1ccc(Cl)s1)C(=O)CN1CC(n2cccn2)C1,10.37,20.2,18.73
CCc1c(C)[nH]c(C2(N)CCCCC2)nc1=O,-,-,8.877
CCC1=N[C@@]2(CC[C@@H]3CN(CC(=O)N(C)C)C[C@@H]32)C(=O)N1CC1CC1,-,-,13.69
Cc1ccc(OCCNC(=O)C2CCOCC2)c(C)c1,-40.02,-,-1.95
Cc1cc(-c2noc(C3CCS(=O)(=O)C3)n2)ccc1F (centres unmarked),-5.822,16.2,12.93
Cc1ccc(N2CCCC(NC(=O)Nc3cnn(C)c3)C2=O)cc1 (centres unmarked),1.128,-28.86,5.177
CCC(C)(CC(=O)OC)NC(=O)c1cccc(F)c1F (centres unmarked),12.08,23.79,10.43
CC(C)NC(=O)[C@@H]1Cc2[nH]cnc2CN1CCCc1ccccc1,-36.25,-1.797,4.511
CCN(CC)S(=O)(=O)c1cc2c3c(c1)c(C)cc(=O)n3CC2,-8.037,-12.13,5.901
O=C1CN(C(=O)CNC(CC(F)(F)F)c2ccc(F)cc2)CCN1 (centres unmarked),-20.17,2.215,7.784
CN(C)C(C(=O)N1CC(Oc2ccccc2F)C1)c1ccccc1F (centres unmarked),-29.18,-,11.72
NC(=O)C1CCN(C(=O)c2ccc(Cn3cc(Br)cn3)cc2)CC1,-50.72,-,9.023
[H][C@@]12CCCCCN(C)[C@@]1([H])[C@H](c1ccccc1)CN2S(=O)(=O)N(CC)CC,-7.055,16.6,-
CN(C)CC(=O)N1CCN(CC(O)c2ccc(F)cc2)CC1 (centres unmarked),-17.11,-,12.29
CC(=O)N1CCN(C(=O)Cc2cnc(-c3c(Cl)cccc3Cl)s2)CC1,3.544,-35.72,4.839
CCNC(=O)C(C)NC(=O)Nc1ccccc1Cl (centres unmarked),-0.462,-8.896,10.18
COCCOCCNC(=O)C(C)Oc1ccccc1C(F)(F)F (centres unmarked),-25.67,-12.35,15.72
Cc1noc(C2CCCCN2C(=O)NCc2ccco2)n1 (centres unmarked),2.416,0.3432,8.639
COC(C(=O)NC1CCN(S(C)(=O)=O)CC1)c1ccccc1 (centres unmarked),0.2579,-35.49,-1.489
COCC(=O)N[C@@H]1CN(Cc2c[nH]nc2-c2cccs2)C[C@H]1O,-1.113,-64.33,16.82
CCc1sc(C(=O)N2CCC(Nc3ccc(C)nn3)CC2)cc1C,21.67,0.8092,19.94
COc1ncc(-c2ccc(C(N)=O)cc2)c(OC)n1,18.18,-,16.97
CCc1cnc(NCc2ccccc2Cn2cccn2)nc1,17.58,30.9,10.43
CCN1CCO[C@@H]2CN(C(=O)COC3CCCC3)C[C@@H]2C1,-,-,0.3484
CN(Cc1ccc2nsnc2c1)C(=O)Cn1ncc(N(C)C)cc1=O,-14.1,-29.57,6.138
CN(Cc1cncnc1)[C@@H]1CN(C(=O)c2ccco2)[C@@H]2CCCO[C@H]12,-,-,8.786
Cc1nn(C)c(C)c1C1CCCN1Cc1cccc(C(=O)N(C)C)c1 (centres unmarked),6.445,16.82,7.042
O=C(NCc1cnc2n1CCN(Cc1cccs1)C2)c1ccno1,-,-,9.524
CCc1ncc(C(=O)N2CC(N3CCCCC3)C2)cn1,7.802,-22.38,-3.922
CC(=O)NCCC(=O)NCc1cccnc1-n1cnc2ccccc21,-1.225,-14.24,10.37
Cc1cnn(CCC(=O)N2CCC3(CCC(=O)N(CC4CC4)C3)CC2)c1,6.016,-12.05,19.77
O=C(CCSc1ccccc1F)NS(=O)(=O)c1ccc2c(c1)OCCO2,3.144,37.5,3.655
Cc1cc2c(cc1C(=O)N1CCC3(CC(=O)NC3=O)C1)OCCO2 (centres unmarked),-1.82,3.687,11.98
CCn1cc(C(=O)NCC(C)(CC)N2CCOCC2)c2ccccc21 (centres unmarked),-9.343,4.5,14.18
CCc1ccc(CCC(=O)NCc2nnc[nH]2)cc1,-12.39,-6.524,1.344

Some entries from above, unchanged:

| compound | Mtb heat-shock | Mtb growth Cornell | LdMetRS |
|---|---|---|---|
| `Cc1ccc(N2CCCC(NC(=O)Nc3cnn(C)c3)C2=O)cc1` (centres unmarked) | 1.128 | -28.86 | 5.177 |
| `CN(C)C(C(=O)N1CC(Oc2ccccc2F)C1)c1ccccc1F` (centres unmarked) | -29.18 | - | 11.72 |
| `CCc1cnc(NCc2ccccc2Cn2cccn2)nc1` | 17.58 | 30.9 | 10.43 |
| `O=C(O)C(F)(F)F.O=C(O)C(F)(F)F.[H][C@@]12C[C@@H](OCc3ccccc3)CN1CCN(C(=O)c1cccnc1)C2` | 3.858 | -36.11 | - |
| `Cc1noc(C2CCCCN2C(=O)NCc2ccco2)n1` (centres unmarked) | 2.416 | 0.3432 | 8.639 |

Data taken from ChEMBL document CHEMBL3988442, “University of Dundee, Small-Polar-MMV Screening Library” (2021).